From article PMC7413384
These are yes or no findings as the source states them, for the method shown. Binding seen in cells or lysates may run through a third protein. Some entries that bind do so weakly or less than the wild type. For some of these results: Tags and fused reporters may be left off the sequences shown.

Sequences of proteins named here, by UniProt entry; tags and fusion partners are left off.
UniProt P68400: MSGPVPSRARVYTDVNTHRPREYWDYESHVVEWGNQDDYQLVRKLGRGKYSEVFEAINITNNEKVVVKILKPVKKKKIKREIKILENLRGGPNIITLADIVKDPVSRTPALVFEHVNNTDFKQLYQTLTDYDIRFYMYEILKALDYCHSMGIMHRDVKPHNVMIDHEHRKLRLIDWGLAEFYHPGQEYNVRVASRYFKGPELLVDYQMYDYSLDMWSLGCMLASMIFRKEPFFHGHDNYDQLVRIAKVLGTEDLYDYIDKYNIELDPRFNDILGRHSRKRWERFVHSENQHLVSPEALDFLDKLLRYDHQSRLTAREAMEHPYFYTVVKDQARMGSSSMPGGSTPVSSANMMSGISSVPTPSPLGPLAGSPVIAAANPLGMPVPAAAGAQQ

T1: NIP30 (in co-immunoprecipitations where the construct is not told) (human) (UniProt Q9GZU8)
T1 sequence: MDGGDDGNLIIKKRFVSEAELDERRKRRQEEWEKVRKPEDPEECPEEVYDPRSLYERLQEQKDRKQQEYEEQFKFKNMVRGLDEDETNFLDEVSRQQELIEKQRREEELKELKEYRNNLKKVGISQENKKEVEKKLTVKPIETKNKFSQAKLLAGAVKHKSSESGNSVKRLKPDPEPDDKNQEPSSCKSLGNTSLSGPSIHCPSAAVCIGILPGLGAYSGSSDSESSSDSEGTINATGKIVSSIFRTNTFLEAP

T2: flag-CDC25A (human) (UniProt P30304)
T2 sequence: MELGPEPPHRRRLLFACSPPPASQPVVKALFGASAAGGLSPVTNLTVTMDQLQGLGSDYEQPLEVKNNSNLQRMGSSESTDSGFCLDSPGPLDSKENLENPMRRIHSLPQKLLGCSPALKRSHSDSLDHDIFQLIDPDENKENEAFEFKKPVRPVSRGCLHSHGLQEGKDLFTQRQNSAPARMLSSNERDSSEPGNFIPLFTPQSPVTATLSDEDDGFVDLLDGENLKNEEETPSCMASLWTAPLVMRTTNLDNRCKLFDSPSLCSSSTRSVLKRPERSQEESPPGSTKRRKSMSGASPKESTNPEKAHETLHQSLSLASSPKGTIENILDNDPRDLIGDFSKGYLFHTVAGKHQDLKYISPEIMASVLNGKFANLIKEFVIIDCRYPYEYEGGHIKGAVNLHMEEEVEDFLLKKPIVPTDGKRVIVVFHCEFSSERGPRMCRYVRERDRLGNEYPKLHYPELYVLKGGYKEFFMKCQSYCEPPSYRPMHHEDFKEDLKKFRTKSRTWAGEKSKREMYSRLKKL

T3: HA-NIP30 (human) (UniProt Q9GZU8)
T3 sequence: T1 sequence

B1: HA-NIP30 (protein, UniProt Q9GZU8 1-254)
chain: T1 sequence
B2: flag-CDC25A (enzyme, UniProt P30304 1-524)
chain: T2 sequence

Experiments:
[1] = molecular target: T1, NIP30 (in co-immunoprecipitations where the construct is not told) (human); test: co-IP; co-immunoprecipitation of CK2 catalytic subunits with NIP30 (Supplementary Fig. 5b)
flag-CDC25A (human) = molecular target: T2, flag-CDC25A (human); test: co-IP; 293T cells transfected with HA-NIP30 and flag-CDC25A or a flag-control vector for 36 h; immunoprecipitation with Flag-M2 agarose beads or HA beads
HA-NIP30 (human) = molecular target: T3, HA-NIP30 (human); test: as above

Molecule | binding [1] | other results
CK2α (Casein Kinase 2 catalytic subunit) (from UniProt P68400 1-391) (enzyme) | binds | –
CK2α’ (Casein Kinase 2 catalytic subunit) (from UniProt P19784 1-350) (enzyme) | binds | –
B1 | – | binding (flag-CDC25A (human)): binds
B2 | – | binding (HA-NIP30 (human)): binds
